PubChem BioAssay AID1224830 – NIAID – 2016

Test: 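Host factors that control LPS-induced TNF expression in human macrophages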 (primary screen)
Cell system: human THP-1 monocytic leukaemia cells, TNF dual-luciferase reporter clone, PMA-differentiated to macrophage-like cells
Knock-down reagent: siRNA pool against human genes, 50 nM
Timing: LPS for 4 h, given about 3 days after siRNA transfection
Challenge: bacterial LPS (TLR4 ligand), 10 ng/ml
Detection: 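Ratio of firefly to renilla light, scaled to the plate median and expressed as a robust z-score per replicate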
Scale: TNF reporter robust z-score: higher = stronger TNF reporter response to LPS
Rule for the call: 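Each well counts as active if its z-score is over 2.8 or under -1.5; controls are left without a call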
The whole screen tested about 18,000 reagents; this is a random part of them. In the full data, about 2,900 (16%) got an active call. 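Calls are made per well; low scores hint the gene aids the LPS response, high scores that it dampens it.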 Repeated entries: four replicate wells of each siRNA pool. No sequences are given here.

| gene | TNF reporter robust z-score | activity call |
| --- | --- | --- |
| OAZ3 (ornithine decarboxylase antizyme 3) | -1.34 | inactive |
| OAZ3 (ornithine decarboxylase antizyme 3) | -1.53 | active |
| OAZ3 (ornithine decarboxylase antizyme 3) | -2.05 | active |
| OAZ3 (ornithine decarboxylase antizyme 3) | -0.95 | inactive |
| RBM44 (RNA binding motif protein 44) | 2.77 | inactive |
| RBM44 (RNA binding motif protein 44) | -0.84 | inactive |
| RBM44 (RNA binding motif protein 44) | -0.78 | inactive |
| RBM44 (RNA binding motif protein 44) | -0.5 | inactive |
| TGFB1I1 (transforming growth factor beta 1 induced transcript 1) | -0.28 | inactive |
| TGFB1I1 (transforming growth factor beta 1 induced transcript 1) | 0.73 | inactive |
| TGFB1I1 (transforming growth factor beta 1 induced transcript 1) | 0.05 | inactive |
| TGFB1I1 (transforming growth factor beta 1 induced transcript 1) | 0.33 | inactive |
| CFAP210 (cilia and flagella associated protein 210) | 0 | inactive |
| CFAP210 (cilia and flagella associated protein 210) | 2.14 | inactive |
| CFAP210 (cilia and flagella associated protein 210) | -0.59 | inactive |
| CFAP210 (cilia and flagella associated protein 210) | 0.08 | inactive |
| PCDHGA7 (protocadherin gamma subfamily A, 7) | 0.69 | inactive |
| PCDHGA7 (protocadherin gamma subfamily A, 7) | 1.43 | inactive |
| PCDHGA7 (protocadherin gamma subfamily A, 7) | 1.02 | inactive |
| PCDHGA7 (protocadherin gamma subfamily A, 7) | 1.26 | inactive |
| SLC43A2 | -0.49 | inactive |
| SLC43A2 | 0.02 | inactive |
| SLC43A2 | -0.72 | inactive |
| SLC43A2 | -0.27 | inactive |
| MARCKS (myristoylated alanine rich protein kinase C substrate) | 0.58 | inactive |
| MARCKS (myristoylated alanine rich protein kinase C substrate) | 1.44 | inactive |
| MARCKS (myristoylated alanine rich protein kinase C substrate) | 0.28 | inactive |
| MARCKS (myristoylated alanine rich protein kinase C substrate) | -0.17 | inactive |
| WDR27 (WD repeat domain 27) | 0 | inactive |
| WDR27 (WD repeat domain 27) | 0.82 | inactive |
| WDR27 (WD repeat domain 27) | 0.9 | inactive |
| WDR27 (WD repeat domain 27) | 0.65 | inactive |
| SLC9A3 | 0.2 | inactive |
| SLC9A3 | 0.64 | inactive |
| SLC9A3 | -0.49 | inactive |
| SLC9A3 | 0.48 | inactive |
| CCNDBP1 (cyclin D1 binding protein 1) | -0.62 | inactive |
| CCNDBP1 (cyclin D1 binding protein 1) | -0.47 | inactive |
| CCNDBP1 (cyclin D1 binding protein 1) | -0.35 | inactive |
| CCNDBP1 (cyclin D1 binding protein 1) | 0.17 | inactive |
| CNBP (CCHC-type zinc finger nucleic acid binding protein) | -0.95 | inactive |
| CNBP (CCHC-type zinc finger nucleic acid binding protein) | -0.64 | inactive |
| CNBP (CCHC-type zinc finger nucleic acid binding protein) | -0.97 | inactive |
| CNBP (CCHC-type zinc finger nucleic acid binding protein) | -0.37 | inactive |
| EIF2B3 (eukaryotic translation initiation factor 2B subunit gamma) | -0.53 | inactive |
| EIF2B3 (eukaryotic translation initiation factor 2B subunit gamma) | -0.68 | inactive |
| EIF2B3 (eukaryotic translation initiation factor 2B subunit gamma) | -0.88 | inactive |
| EIF2B3 (eukaryotic translation initiation factor 2B subunit gamma) | -1.31 | inactive |
| FPGT (fucose-1-phosphate guanylyltransferase) | -0.54 | inactive |
| FPGT (fucose-1-phosphate guanylyltransferase) | 0.69 | inactive |
| FPGT (fucose-1-phosphate guanylyltransferase) | -0.18 | inactive |
| FPGT (fucose-1-phosphate guanylyltransferase) | 0.74 | inactive |

Hits, of those listed so far:
| gene | TNF reporter robust z-score | activity call |
| --- | --- | --- |
| OAZ3 (ornithine decarboxylase antizyme 3) | -1.53 | active |
| OAZ3 (ornithine decarboxylase antizyme 3) | -2.05 | active |

Further entries follow.
| gene | TNF reporter robust z-score | activity call |
| --- | --- | --- |
| GNG4 (G protein subunit gamma 4) | -1.47 | inactive |
| GNG4 (G protein subunit gamma 4) | -0.7 | inactive |
| GNG4 (G protein subunit gamma 4) | -1.05 | inactive |
| GNG4 (G protein subunit gamma 4) | -0.86 | inactive |
| TMEM169 (transmembrane protein 169) | 2.71 | inactive |
| TMEM169 (transmembrane protein 169) | 1.35 | inactive |
| TMEM169 (transmembrane protein 169) | 1.42 | inactive |
| TMEM169 (transmembrane protein 169) | 1.79 | inactive |
| SSX5 (SSX family member 5) | -0.46 | inactive |
| SSX5 (SSX family member 5) | 0.53 | inactive |
| SSX5 (SSX family member 5) | 1.24 | inactive |
| SSX5 (SSX family member 5) | 1.27 | inactive |
| CIB1 (calcium and integrin binding 1) | -0.07 | inactive |
| CIB1 (calcium and integrin binding 1) | 1.99 | inactive |
| CIB1 (calcium and integrin binding 1) | 0.64 | inactive |
| CIB1 (calcium and integrin binding 1) | 0.74 | inactive |
| LINC00174 (long independently transcribed non-coding RNA 174) | -1.26 | inactive |
| LINC00174 (long independently transcribed non-coding RNA 174) | -1 | inactive |
| LINC00174 (long independently transcribed non-coding RNA 174) | -1.37 | inactive |
| LINC00174 (long independently transcribed non-coding RNA 174) | -1.27 | inactive |
| ST6GAL1 (ST6 beta-galactoside alpha-2,6-sialyltransferase 1) | -0.16 | inactive |
| ST6GAL1 (ST6 beta-galactoside alpha-2,6-sialyltransferase 1) | 0.94 | inactive |
| ST6GAL1 (ST6 beta-galactoside alpha-2,6-sialyltransferase 1) | 0.29 | inactive |
| ST6GAL1 (ST6 beta-galactoside alpha-2,6-sialyltransferase 1) | 0.35 | inactive |
| PRTN3 (proteinase 3) | 1.71 | inactive |
| PRTN3 (proteinase 3) | 2.98 | active |
| PRTN3 (proteinase 3) | 0.62 | inactive |
| PRTN3 (proteinase 3) | -0.25 | inactive |
| RWDD1 (RWD domain containing 1) | 0.43 | inactive |
| RWDD1 (RWD domain containing 1) | 1.45 | inactive |
| RWDD1 (RWD domain containing 1) | -1.51 | active |
| RWDD1 (RWD domain containing 1) | 2.28 | inactive |
| AVPR1A (arginine vasopressin receptor 1A) | -1.07 | inactive |
| AVPR1A (arginine vasopressin receptor 1A) | -1.53 | active |
| AVPR1A (arginine vasopressin receptor 1A) | -1.28 | inactive |
| AVPR1A (arginine vasopressin receptor 1A) | -0.96 | inactive |
| RBPJL | 2.01 | inactive |
| RBPJL | 1.67 | inactive |
| RBPJL | 0.7 | inactive |
| RBPJL | 1.18 | inactive |
| NEFL (neurofilament light chain) | -0.96 | inactive |
| NEFL (neurofilament light chain) | -0.95 | inactive |
| NEFL (neurofilament light chain) | -0.78 | inactive |
| NEFL (neurofilament light chain) | -0.56 | inactive |
| MDH2 (malate dehydrogenase 2) | -0.13 | inactive |
| MDH2 (malate dehydrogenase 2) | 1.59 | inactive |
| MDH2 (malate dehydrogenase 2) | 1.11 | inactive |
| MDH2 (malate dehydrogenase 2) | 1.77 | inactive |
| RIOK1 (RIO kinase 1) | -1.43 | inactive |
| RIOK1 (RIO kinase 1) | -0.04 | inactive |
| RIOK1 (RIO kinase 1) | 0.41 | inactive |
| RIOK1 (RIO kinase 1) | 0.17 | inactive |
| FGF14 (fibroblast growth factor 14) | -0.42 | inactive |
| FGF14 (fibroblast growth factor 14) | 0.14 | inactive |
| FGF14 (fibroblast growth factor 14) | -0.37 | inactive |
| FGF14 (fibroblast growth factor 14) | -0.1 | inactive |
| SPRTN (SprT-like N-terminal domain) | -0.84 | inactive |
| SPRTN (SprT-like N-terminal domain) | -0.59 | inactive |
| SPRTN (SprT-like N-terminal domain) | -0.19 | inactive |
| SPRTN (SprT-like N-terminal domain) | -0.3 | inactive |
